The target in this assay is SdeA::GFP fusion protein (A. fumigatus Δ9-fatty acid desaturase SdeA with C-terminal GFP) (Aspergillus fumigatus) (UniProt B0YB43). The assay can be described thus: co-IP; GFP-Trap agarose resin on extracts of the sdeA::GFP strain (wild-type strain as control); mycelia grown in MM (1% glucose) 24 h at 30°C, control at 30°C or heat shock at 48°C for 15, 30 and 60 min; blots with α-GFP and α-Hsp90.

Chains of the proteins cited; added tags and fusions are not shown.
UniProt P40292: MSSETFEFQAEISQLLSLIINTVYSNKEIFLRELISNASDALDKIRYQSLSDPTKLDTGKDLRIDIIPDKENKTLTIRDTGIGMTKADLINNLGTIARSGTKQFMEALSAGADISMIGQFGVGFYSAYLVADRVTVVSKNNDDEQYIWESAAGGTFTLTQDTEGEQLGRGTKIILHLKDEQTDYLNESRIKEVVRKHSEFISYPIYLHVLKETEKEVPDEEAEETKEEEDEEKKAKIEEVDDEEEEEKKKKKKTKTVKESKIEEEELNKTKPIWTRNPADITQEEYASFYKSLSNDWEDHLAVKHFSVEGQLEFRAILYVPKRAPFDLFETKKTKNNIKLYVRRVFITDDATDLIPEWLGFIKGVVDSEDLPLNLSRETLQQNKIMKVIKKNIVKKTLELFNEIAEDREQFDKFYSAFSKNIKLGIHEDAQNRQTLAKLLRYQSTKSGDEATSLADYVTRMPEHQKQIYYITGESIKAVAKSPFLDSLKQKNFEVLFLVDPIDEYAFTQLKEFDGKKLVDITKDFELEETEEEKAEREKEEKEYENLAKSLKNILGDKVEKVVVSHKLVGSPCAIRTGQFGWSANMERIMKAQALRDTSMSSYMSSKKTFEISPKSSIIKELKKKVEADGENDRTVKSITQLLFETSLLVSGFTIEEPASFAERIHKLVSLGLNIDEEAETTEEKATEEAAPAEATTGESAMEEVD

The results in this text go back to publication PMC10269545.

Results are given in words; binding and its absence hold for the method and conditions named. Binding seen in cells or lysates may run through a third protein. Binding can be weak; no strength is given.

As for “A. fumigatus Hsp90 (from UniProt P40292 1-706)”, the binding entry is listed as “binds”.
